# From PubChem BioAssay AID1347423 (Functional Genomics Laboratory (NCATS/FGL), 2020)
# Hit rate of the full screen: of about 52,000 sequences, about 210 (0.4%) were called active.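 How the source made its calls: active means gene whose silencing raises cell survival under the drug, median off-target-corrected z-score across its silencing RNAs 2 or more; inactive means the rest.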 This is one part of the list.
# Experiment: Resistance to Poly (ADP-Ribose) Polymerase inhibitor: Gene Identification via Genome-wide siRNA Screen
# Conditions: mouse BRCA2 R2336H ES cells, olaparib, CellTiter-Glo viability; stronger effect = higher value
# In short: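 Genome-wide siRNA screen (3 siRNAs/gene, 20 nM) in mouse ES cells carrying hypomorphic BRCA2 R2336H; olaparib 500 nM added 48 h post-transfection, CellTiter-Glo viability 72 h later. Normalized to plate-median negative control; MAD z-scores, gene median, seed-adjusted.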
row,Sequence,z-score
1,GGUCUUGUGCAUAAAACAGTT against 1810009K13Rik,inactive: 0.316
2,GGUGAUCUGUAGGAACACATT against 9530053A07Rik,inactive: -0.892
3,GGUGAAUCUAUUUACCUGCTT against 4921509E07Rik,inactive: -0.438
4,GGCUAUGGCUGAUAAGCAUTT against BC048502,inactive: 0.543
5,GGCCUCAUCAUGUGUUCAATT against App,inactive: -0.226
6,GGCAUACCCACAACUGAUGTT against Aarsl,inactive: -0.766
7,GUUGCCUAUCAUUUGUAGATT against Olfr1052,inactive: -0.485
8,GGCCAUAUCGUUCACUCACTT against Slc18a3,inactive: 0.112
9,GGAAAAGAAAUGAUGGAGUTT against Dnajc9,inactive: 0.355
10,GGUGGUGAUAUUUAUUGUGTT against Olfr1,inactive: 1.79
11,GUGAAUGUGCCAUUUACUUTT against BC017612,inactive: 1.46
12,GGAGGAAGAAUAUGGAAAATT against Ptprz1,inactive: 0.652
13,GGUCCUUUGAUGCUGACUGTT against Sfrp4,inactive: -0.159
14,GCCCUAUCGUUCUGAAAUATT against Galc,inactive: -0.0877
15,CCUAGCUCUCUAGAAUAGATT against Msn,inactive: -0.0384
16,GGGCAGCUCAUGUCCUAUATT against Scfd2,inactive: -0.732
17,GGAGAGGUUUAGUAAUUACTT against Trim21,inactive: 0.05
18,GGAGCCUGUUCCAGAAUUGTT against Bcl7c,inactive: 0.579
19,GGUUUUGAAUACAAAAAGGTT against Copg2,inactive: -0.514
20,GGAAAAGGAAACCCAGAGCTT against Tdg,inactive: 0.903
21,CGCAACAGCUAGGAUUUUUTT against Mod1,inactive: 1.09
22,GGAGGAAGACCUGAAGAAGTT against Gck,inactive: -1.6

row,Sequence,z-score
1,GGGCCUUGUUCCUCUUGAATT against 3110005P07Rik,inactive: -1.86
2,GGUGGCCUUACAAAUGCCATT against Dph2l1,inactive: 0.792
3,GGAGCUGCGCAGUUUAGAATT against Rab24,inactive: -0.24
4,GCUCAGCUCAAAUGCGGUUTT against 4931431C16Rik,inactive: 0.12
5,GCUAUUCCAACAUGAAUCCTT against Klk21,inactive: 1.41
6,GGUCAAUCUUUGGAGUAUUTT against Stk39,inactive: -0.594
7,CGUCUGUUUACCUCAUGAATT against Arid3a,inactive: 1.07
8,GGGAUUUUCAAAGUGAGAATT against Pmaip1,inactive: 0.313
9,CCAAGAUUACUGAACCUACTT against Lin28,inactive: 0.056
10,GGUUUGUCAGGUUCUAAAATT against Atf1,inactive: 2.2
11,GCUAGGAUUAAUGAGGAAATT against Cul3,inactive: -0.494
12,GGUGAAAACAAUGACUUUGTT against BC038156,inactive: 0.269
13,CGGUCACACAAAAAACAGATT against AU019823,inactive: -1.51
14,CCCUAUUUUAACCGUGUUATT against 7420416P09Rik,inactive: 1.13
15,GGGAGCAAAUGUAAUUUAUTT against Tbpl1,inactive: 0.12
16,GCCUGGAUUCAGAAGCUACTT against Ugt1a1,inactive: 0.72
17,GGAACAGAUGUGGUUAUAATT against 2010002H18Rik,inactive: -0.406
18,GGACUGCUGUCACCAUUUCTT against Gpr132,inactive: 0.238
19,GGAAGGAGUAUGGCAGGAGTT against Fbxo17,inactive: -0.207
20,GGCUGGACACUUCAAAAUGTT against 4930412M03Rik,inactive: 0.00325
21,GGCCUUGUGUGCAAUGAGATT against Mfge8,inactive: -2.18
22,GCAGAUCAACAAAUAGGAUTT against 5630401J11Rik,inactive: 2.02

row,Sequence,z-score
1,GGAAGAAAUCAUCCACAACTT against Bid,inactive: -0.787
2,GGUAUAAGACCUUUUCAACTT against Olfr509,inactive: 1.38
3,GGGUGAAGUAGGUGAAAAATT against H2-M10.6,inactive: -1.85
4,GGAGGAAGAGCUCAUUGCATT against Tnnt1,inactive: -1.56
5,GGCCAAGGGAAAAAAACCCTT against Pax7,inactive: 0.0209
6,GCCUACAGAGUCUUAGUUATT against 2400003B06Rik,inactive: 0.0277
7,CCAUUGUAGUCAGUCAAAUTT against Pip,inactive: 0.839
8,UACCCGAAUGCAGACAGGATT against Raet1a,inactive: -0.322
9,GGGACUCAGAAUCCACACUTT against Olfr1046,inactive: -2.43
10,GGACUCAGCACUCUUUUGCTT against E130311K13,inactive: -0.167
11,GGAUAGUUUUGUGUUUGAUTT against Gab2,inactive: 0.199
12,GACUACACUGAUUUUUCAUTT against Olfr980,inactive: 0.00576
13,GGCUGAGUCCUAAUAGCCUTT against 4930565A21Rik,inactive: -1.05
14,CCCUAUUCUGCUUUCACUUTT against Sap18,inactive: -0.0919
15,CGAUUAUGAGCACUAUAUUTT against Ddx20,inactive: 0.484
16,GCACUUAUGCCAGAUUGGCTT against Ifi35,inactive: -0.00551
17,GGUUGGCAGCGUGGUAACUTT against 3110045G13Rik,inactive: -1.33
18,GGACUCCAGACUUGAAACATT against Uchl5,inactive: -2.24
19,GCCAAGAGUUUGAUAUAUATT against BC030417,inactive: -0.162
20,GGUAGUGGAUGGGAGCUCATT against Thtpa,inactive: -0.779
21,CGGAAAAGAUCCCUAUUGUTT against Adam5,inactive: -0.0652
22,GCUUUCGGUGGAUUCCUUATT against Rarsl,inactive: 0.437

# A portion of the results above, for reference:
row,Sequence,z-score
7,CCAUUGUAGUCAGUCAAAUTT against Pip,inactive: 0.839
8,UACCCGAAUGCAGACAGGATT against Raet1a,inactive: -0.322
9,GGGACUCAGAAUCCACACUTT against Olfr1046,inactive: -2.43
10,GGACUCAGCACUCUUUUGCTT against E130311K13,inactive: -0.167
11,GGAUAGUUUUGUGUUUGAUTT against Gab2,inactive: 0.199
12,GACUACACUGAUUUUUCAUTT against Olfr980,inactive: 0.00576
13,GGCUGAGUCCUAAUAGCCUTT against 4930565A21Rik,inactive: -1.05
14,CCCUAUUCUGCUUUCACUUTT against Sap18,inactive: -0.0919
15,CGAUUAUGAGCACUAUAUUTT against Ddx20,inactive: 0.484
16,GCACUUAUGCCAGAUUGGCTT against Ifi35,inactive: -0.00551
17,GGUUGGCAGCGUGGUAACUTT against 3110045G13Rik,inactive: -1.33
18,GGACUCCAGACUUGAAACATT against Uchl5,inactive: -2.24
19,GCCAAGAGUUUGAUAUAUATT against BC030417,inactive: -0.162
20,GGUAGUGGAUGGGAGCUCATT against Thtpa,inactive: -0.779
21,CGGAAAAGAUCCCUAUUGUTT against Adam5,inactive: -0.0652
22,GCUUUCGGUGGAUUCCUUATT against Rarsl,inactive: 0.437
